# Primary screen of a compound library

Data taken from ChEMBL document CHEMBL3988442, “University of Dundee, Small-Polar-MMV Screening Library” (2021).

Results are given as percent effect.
The record does not define 0% and 100%; most values in the screen are far below 50% and negative numbers occur (in some assays of this library far below -100).
This is an unselected part of the compounds tested.
Two or more numbers in one place are separate tests of the same structure; such repeats can differ widely.

Mtb glucose medium: 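Phenotypic screen: M. tuberculosis growth, glucose 7H9 medium, 3 days; the read-out is not stated. Compounds at 50 µM. Direction is inferred from retests: higher values go with more growth inhibition. About 69,000 compounds were tested under these conditions; 1.1% (about 760) showed 50% or more at least once.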
Mtb cholesterol medium: 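Growth of Mycobacterium tuberculosis over 4 days (cholesterol / DPPC medium with tyloxapol); the read-out is not stated. Tested at 50 µM. Direction is inferred from retests: higher values go with more growth inhibition. Of about 69,000 compounds tested this way, about 370 (0.54%) reached 50% or more in at least one test.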

compound: Nc1cc(C(=O)N2CCC3(CC2)Nc2ccccc2NC3=O)ccn1
Mtb glucose medium: -22.22
Mtb cholesterol medium: -7.935 and -18.33

compound: Cn1cc(Cl)cc1C(=O)N1CCC2(CCCN(CC3CCC3)C2=O)C1 (stereo unspecified)
Mtb glucose medium: -3.343
Mtb cholesterol medium: 15.96 and 5.921

compound: O=C(C1CC1)N1CCCC(c2nc(O)cc(-c3ccncc3)n2)C1 (stereo unspecified)
Mtb glucose medium: 13.8
Mtb cholesterol medium: -2.618

compound: CCN(CC)C(=O)[C@@H]1C[C@@H](N)CN1C(=O)c1cc2c([nH]c1=O)CCC2
Mtb glucose medium: -1.871 and -5.021
Mtb cholesterol medium: -6.767

compound: CC(C)c1nccc(C2(c3ccccc3Cl)CCNCC2)n1
Mtb glucose medium: 30.67
Mtb cholesterol medium: 2.736

compound: CC1CN(C)c2ccccc2CN1C(=O)NCc1ccon1 (stereo unspecified)
Mtb glucose medium: 6.839 and 0.05636
Mtb cholesterol medium: -13.1

compound: Cc1cc(C)cc(CCC(=O)NC(C)c2nnn[nH]2)c1 (stereo unspecified)
Mtb glucose medium: 6.84
Mtb cholesterol medium: -1.139 and -2.115

compound: CNc1ccc(C2CN(c3cc(C)nc(N)n3)CCO2)nc1 (stereo unspecified)
Mtb glucose medium: 1.051
Mtb cholesterol medium: -2.191 and -10.33

compound: CNc1ncc(CN2CCCC2c2[nH]ncc2C(=O)N(C)C)cn1 (stereo unspecified)
Mtb glucose medium: 0.3217
Mtb cholesterol medium: -1.877

compound: CCOC(=O)CNC(=O)N1CCOC(CCc2ccccc2)C1 (stereo unspecified)
Mtb glucose medium: -13.37
Mtb cholesterol medium: -13.22

compound: O=C(O)C(F)(F)F.[H][C@@]12CN(C(=O)c3ccncc3F)C[C@]1([H])OCCN2CC1CC1
Mtb glucose medium: 5.425 and -4.098
Mtb cholesterol medium: 1.833

compound: CN(C)S(=O)(=O)c1cccc(CNc2cc(CO)ccc2Cl)c1
Mtb glucose medium: 34.19
Mtb cholesterol medium: 8.764

compound: Cn1cccc1C(=O)NCc1cn2c(n1)CN(C(=O)c1ccsc1)CC2
Mtb glucose medium: -45.47
Mtb cholesterol medium: -15.95 and -9.362

compound: O=C(CCCN1CCCCC1)NC(C(=O)O)c1cccc(F)c1 (stereo unspecified)
Mtb glucose medium: -13.95
Mtb cholesterol medium: -10.36

compound: Cc1nc(C2CCCN2C(=O)c2ccc(F)cc2)ncc1C(N)=O (stereo unspecified)
Mtb glucose medium: -0.4495
Mtb cholesterol medium: -5.654

compound: O=C(NCCCN1CCOCC1)c1ccc(-n2ccc3ccccc32)s1
Mtb glucose medium: 38.77
Mtb cholesterol medium: -20.98

compound: [H][C@]12CN(C(=O)C3CC(F)(F)C3)C[C@@]1([H])OCCN(S(C)(=O)=O)C2
Mtb glucose medium: 29.67
Mtb cholesterol medium: 11.87

compound: CC(Cn1cccn1)NC(=O)Cc1csc(C(C)C)n1 (stereo unspecified)
Mtb glucose medium: 16.65
Mtb cholesterol medium: 21.44

compound: Cc1cccc2c1NC1(CCCC1)NC2=O
Mtb glucose medium: -14.05
Mtb cholesterol medium: -0.1198

compound: Cc1ccc(-c2nc(CC(=O)NCC(C)N3CCOCC3)cs2)o1 (stereo unspecified)
Mtb glucose medium: -17.78
Mtb cholesterol medium: -7.287

compound: COCCN1CC(=O)N(C(C)C)C(C)(C)C1
Mtb glucose medium: 3.105 and 14.39
Mtb cholesterol medium: 5.531

compound: COc1cccc(Cc2nnc(SCCS(C)(=O)=O)o2)c1
Mtb glucose medium: 25.04
Mtb cholesterol medium: -10.35 and 8.267

compound: NS(=O)(=O)CCNC(=O)c1cc2cccc(F)c2o1
Mtb glucose medium: 0.8072 and -21.69
Mtb cholesterol medium: -25.15

compound: c1ccc(CN2CCCC2)c(CNc2cncc3nnnn23)c1
Mtb glucose medium: -6.39 and -17.68
Mtb cholesterol medium: -28.57

compound: COCCOCC(=O)Nc1ccnn1-c1ccc(Cl)cc1
Mtb glucose medium: 24.24
Mtb cholesterol medium: 2.36

compound: CNc1nc2c(s1)C(c1cccc(Cl)c1Cl)CC(=O)N2 (stereo unspecified)
Mtb glucose medium: 27.34
Mtb cholesterol medium: 0.4531

compound: Cc1noc(C)c1CN1CCN(Cc2nccn2C)CC1
Mtb glucose medium: -11.53
Mtb cholesterol medium: -5.312

compound: COCCOc1ccc(CNCC2CNc3cc(C)nn3C2)cn1 (stereo unspecified)
Mtb glucose medium: 4.584
Mtb cholesterol medium: 5.441

compound: [H][C@@]12CN(Cc3ccc(Oc4ccccc4)cc3)C[C@]1(C(=O)O)CNC2=O
Mtb glucose medium: 15.89
Mtb cholesterol medium: -5.907

compound: CCOc1cc(NC(=O)N2CCC(c3nnc[nH]3)CC2)ccc1C
Mtb glucose medium: 24.91
Mtb cholesterol medium: 12.66

compound: CC(C)S(=O)(=O)NCC1CCCN(C(=O)c2ccc(F)cc2)C1 (stereo unspecified)
Mtb glucose medium: -33.3
Mtb cholesterol medium: 4.109 and 19.93

compound: CN(CC(=O)NC(C)(C)C)C(=O)c1cccn1CCc1ccccc1
Mtb glucose medium: 6.403 and -25.23
Mtb cholesterol medium: -18.71

compound: CC(=O)NC[C@H]1OC[C@@H](NC2CCC(F)(F)CC2)[C@@H]1O
Mtb glucose medium: 16.71 and -26.11
Mtb cholesterol medium: -20.88

compound: CC(=O)N1N=C(c2ccccc2)OC1C(=O)NCCc1ccc(C)cc1 (stereo unspecified)
Mtb glucose medium: 16.49
Mtb cholesterol medium: 1.776

compound: Cc1nn(C)c(C)c1C1CCCN1Cc1cccc(OCC(N)=O)c1 (stereo unspecified)
Mtb glucose medium: -16.6
Mtb cholesterol medium: 13.12

compound: O=C(CCCOCc1ccccc1)N1CCCC(c2ncc[nH]2)C1 (stereo unspecified)
Mtb glucose medium: -17.36
Mtb cholesterol medium: 7.373

compound: CC(=O)c1sc(Nc2ccc(Cl)cn2)nc1C
Mtb glucose medium: -55.55
Mtb cholesterol medium: -38.83

compound: CCN(CC1CN(Cc2cccnc2)CCO1)c1cccnn1 (stereo unspecified)
Mtb glucose medium: -19.57
Mtb cholesterol medium: -12.03 and -5.54

compound: CC(C)Cc1cc(C(=O)NCC(c2ccc(F)cc2)N(C)C)n(C)n1 (stereo unspecified)
Mtb glucose medium: -3.362
Mtb cholesterol medium: -4.639

compound: CCOCc1ncn2c1CN(S(=O)(=O)c1cccc(C)c1)CC2
Mtb glucose medium: -4.063 and 6.605
Mtb cholesterol medium: -1.037

compound: [H][C@@]12CCCCN(C)[C@]1([H])[C@@H](c1ccccc1)CCN2C(=O)c1cccnc1
Mtb glucose medium: -12.88
Mtb cholesterol medium: -17.73

compound: Cc1cc(C)cc(NC(=O)CC2CN(Cc3ccccc3)CCO2)c1 (stereo unspecified)
Mtb glucose medium: 6.456
Mtb cholesterol medium: 10.87

2 of the entries, repeated:

| compound | Mtb glucose medium | Mtb cholesterol medium |
|---|---|---|
| `COCCN1CC(=O)N(C(C)C)C(C)(C)C1` | 3.105 and 14.39 | 5.531 |
| `CCOCc1ncn2c1CN(S(=O)(=O)c1cccc(C)c1)CC2` | -4.063 and 6.605 | -1.037 |